Here are results for 66 sequences from PubChem BioAssay AID1347423 (Functional Genomics Laboratory (NCATS/FGL), 2020).

In all, about 52,000 sequences went through this assay and about 210 (0.4%) were called active.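 How the source made its calls: active means gene whose silencing raises cell survival under the drug, median off-target-corrected z-score across its silencing RNAs 2 or more; inactive means the rest.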 The list shows a part of the results.

This assay in a line: Resistance to Poly (ADP-Ribose) Polymerase inhibitor: Gene Identification via Genome-wide siRNA Screen. Conditions: mouse BRCA2 R2336H ES cells, olaparib, CellTiter-Glo viability; hits give high values. The essentials:
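Genome-wide siRNA screen (3 siRNAs/gene, 20 nM) in mouse ES cells carrying hypomorphic BRCA2 R2336H; olaparib 500 nM added 48 h post-transfection, CellTiter-Glo viability 72 h later. Normalized to plate-median negative control; MAD z-scores, gene median, seed-adjusted.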
For orientation: ATP-based viability assays read luminescence as a measure of living cells.
For the sequence GGAGGUUCUUCAGUACUGCTT against Aplp2, the z-score was inactive: 0.175.

Consider GGAAAAAGCAUAGAUAGGUTT against Amigo3, for which the z-score was inactive: 0.426. As to CCAACUUAUCAACAUCCGGTT against Plekha6, the z-score is inactive: 1.56. To GGAGAAAAUAAACUCUCUCTT against Capns1 belongs inactive: 0.434. With “GGAGAUCCUGGAAGACUUCTT against 4833422F24Rik”, the z-score was inactive: -1.85. To CGUUCUUUUACAGUGCUUGTT against Rnf127 belongs inactive: 0.142; to CCUCGUUACAUCCUCCCUGTT against Pold1, inactive: -2.15; to GGCCAUCAAAUCUAUAUACTT against Sucnr1, inactive: 2.02. On to GGCAACAUGAUGAUUAUAGTT against Olfr1220, for which the z-score was inactive: -0.523. Regarding GGUGAUGGUAGCAAGACUGTT against Dcpp, the z-score was inactive: -0.267. In the case of GGAAGAGCUUCAUCAGCCATT against Acoxl, the z-score is inactive: -0.685. On to GAUUUUGGGAAUAUAGUGCTT against Klra16, for which the z-score was inactive: -0.568. To GGUAUUUAUUGACAGGUGATT against Eat2 belongs inactive: 0.828; to GCAUUUCUUUCUUGCCUUCTT against Olfr1276, inactive: 0.613.

For the sequence GCUCAGUCUCUUGGGUGGUTT against Cel, the z-score is inactive: -0.868.

For GCAUACGAUAUCACCAUAUTT against Dsg1a, the z-score was inactive: 1.78.

Regarding GGUAGAAGAAUUCAGUUUUTT against Smpd3, the z-score was inactive: 0.155. For GCUAGCCAUGGUUACCCACTT against Slc39a3, the z-score was inactive: -0.618.

GGCAACAAUAGUUCAGAAGTT against Rps6ka5: the z-score was inactive: 0.539. Consider “GCCAUACUUCCCUACAAAATT against 4922504H04Rik”, for which the z-score was inactive: 0.865. Take “GGGUGUUUGGAGAUUGUGUTT against C030036P15Rik”: the z-score is inactive: -0.604.

“CCUGGAAACUAUUUUGAUGTT against 3110023G01Rik”: the z-score was inactive: 0.259. To “CCUCAUGUCUACAAAGUUATT against 9130002C22Rik” belongs inactive: -0.524. As for CCUUUCCUGACAAUGUACATT against Pvrl1, the figure is inactive: 0.235. To GGAUGAUGGAAUAUCUCAATT against Pcdhb10 belongs inactive: 1.36; to “CCAUCGAUCACGUCAAAGGTT against 1810017N16Rik”, inactive: 1.79; to GGAGGAAUUCUCCUUAUUCTT against Cnnm3, inactive: -0.749. Consider GGCCUGUUUUUAAAAAGGATT against Tm4sf2, for which the z-score was inactive: -0.222. To “CCAAUGAGAGGUAAAAAACTT against C630007B19Rik” belongs inactive: 0.119; to CCUUCCAAUCUGGUUAAGUTT against Spock1, inactive: 1.65. As for GCCGGAUGAAGGACUUUACTT against Dcc, the figure is inactive: -1.03. GCCCAAUUUUACAUUGUUUTT against Gpx1: the z-score is inactive: -0.866.

In the case of CCCACUUUGAGGAAAGCUATT against BC063749, the z-score is inactive: -0.333. As to GGUAUUCUUCGAAUUUUUCTT against Egln1, the z-score is inactive: 1.26. As for GGAUGGUAGCAGCAACAACTT against Grem2, the figure is inactive: 2.52. As for GGAGCUUGAAUAUGUUCUATT against Capn9, the figure is inactive: 1.4; as for CCAAAACACUACCAAUAAUTT against Tinag, inactive: 0.423. Regarding GGGCAGAUCCUAAUAAGCATT against Irs3, the z-score is inactive: 0.585. Take GCAACAUCAGGUAACCUUUTT against Zfp526: the z-score was inactive: -0.5. As for GGAGCAGAUGGUCCAUUGUTT against Ly6g5c, the figure is inactive: -2.27; as for “CGGAGAGUAUGAGAGUUCCTT against D17Ertd288e”, inactive: 0.0647.

Turning to “GGAGGAGGACUUUGAUGACTT against 5830417I10Rik”, the z-score is inactive: -0.0133. “GGCUCUUGGAUAUUUCCGATT against 2610027L16Rik”: the z-score is inactive: -0.315. To GGAGGAGAAAACAGGAAUUTT against H2-Eb1 belongs inactive: -0.0615; to GCUGCUUCAUGCAAGACCUTT against Zswim1, inactive: 0.239; to “GGACACCACCGACUUUUUUTT against 2310073E15Rik”, inactive: 0.311.

Take CCCAAACAUUGAAGCUCUGTT against Fez1: the z-score was inactive: -0.656. As for GGAGGCUCUAAAGAGACACTT against Olfr498, the figure is inactive: 1.09. As for GCAGAGCGAUUAUAUGGACTT against Rnpepl1, the figure is inactive: -0.599; as for “CCUGCUCUCCUCAUUAUGUTT against 6530404N21Rik”, inactive: -0.252.

In the case of GCAAAAGACCAUCUGAGUGTT against BC054059, the z-score was inactive: 0.689.

“CGGUGAUGGUUCAUUUGCATT against D11Bwg0280e”: the z-score was inactive: 0.368. To “GGCUCUAUCUUAAAAUAACTT against 4930542C12Rik” belongs inactive: 0.213; to “GGAGCUACGAAAAUUAACATT against B230114P05Rik”, inactive: -1.89. To CCGAGAACUUGACUCUUCATT against Ppp1r15b belongs inactive: 2.11; to GGCCUACAUACUCCUGAAGTT against ttc21a, inactive: -2.41. To “GGACUAAGAUUUGUGUUAGTT against 0610011N22Rik” belongs inactive: -0.334. Regarding GGCUAUGUCAUUUACAGGATT against Rpl15, the z-score was inactive: -3.26. As to GGCCGUGUUAAGGAAUCUGTT against Cidea, the z-score was inactive: -1.02.

For the sequence GCAAAGCUACUCACUUCUUTT against Nck2, the z-score is inactive: 1.04. As for CCAUGUUACGGAUUAUCUATT against BC037651, the figure is inactive: -0.678; as for “GGAUGAGAAACUUCAGCUGTT against 2810451A06Rik”, inactive: 0.0917; as for GGAUGAUAUAGUUUGUACCTT against Kctd7, inactive: 0.111. To GGACUUCAGUUACAACCGGTT against Nr1h3 belongs inactive: 4.24; to GCAGAUGGUACUACUGAGCTT against Egfl7, inactive: 0.404. To GCUUCUCUACACCACAGACTT against Olfr796 belongs inactive: 0.598.
